Source: PMC11555231
These are yes or no findings as the source states them, for the method shown. Binding seen in cells or lysates may run through a third protein. Some results given as binding are weak or reduced against the parent protein; the word gives no strength.

The chains behind the UniProt entries cited, without tags or fusion partners.
UniProt Q9UM07: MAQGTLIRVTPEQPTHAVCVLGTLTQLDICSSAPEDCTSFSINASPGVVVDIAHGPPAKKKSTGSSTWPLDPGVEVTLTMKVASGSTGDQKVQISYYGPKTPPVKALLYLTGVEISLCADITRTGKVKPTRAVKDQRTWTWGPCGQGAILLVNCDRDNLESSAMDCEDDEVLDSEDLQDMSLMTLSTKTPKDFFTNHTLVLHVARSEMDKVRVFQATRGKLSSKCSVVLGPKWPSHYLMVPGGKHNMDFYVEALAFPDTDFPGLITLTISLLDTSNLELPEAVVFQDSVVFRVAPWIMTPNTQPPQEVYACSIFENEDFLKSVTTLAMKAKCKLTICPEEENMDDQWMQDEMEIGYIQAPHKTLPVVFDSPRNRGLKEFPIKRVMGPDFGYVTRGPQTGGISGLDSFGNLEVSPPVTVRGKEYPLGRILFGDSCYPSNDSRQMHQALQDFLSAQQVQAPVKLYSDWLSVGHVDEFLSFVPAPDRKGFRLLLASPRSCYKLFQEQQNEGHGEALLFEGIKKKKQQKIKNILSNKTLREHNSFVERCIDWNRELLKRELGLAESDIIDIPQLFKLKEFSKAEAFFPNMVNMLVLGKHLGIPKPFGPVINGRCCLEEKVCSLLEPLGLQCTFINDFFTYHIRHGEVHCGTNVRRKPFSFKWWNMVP

Assays:
[1] = biological target: human PADI4 stably expressed in E14 mouse embryonic stem cells (hPADI4-stable) (human) (UniProt Q9UM07); test: pull-down; PADI4 isolated through bio-PADI4_7 on streptavidin beads from lysate of hPADI4-stable mES cells; associated proteins detected by immunoblot (Fig. S16B)
[2] = biological target: human PADI4 stably expressed in mouse ES cells (hPADI4-stable) (human) (UniProt Q9UM07); test: pull-down; cellular hPADI4 isolated from lysate of hPADI4-stable mES cells by its ligand bio-PADI4_7 on streptavidin beads; partners detected by immunoblot

B1: Bcr (protein, UniProt Q6PAJ1 1-1270)
chain: MVDSVGFAEAWRAQFPDSEPPRMELRSVGDIEQELERCKASIRRLEQEVNQERFRMIYLQTLLAKEKKSYDRQRWGFRRAAQPPDGAAEPRASAPRPPPAPADGADPAPVEESEARPDGEGSPSKGRSASARRPAAAASADRDDRGPPTSVAALRSNFEKIRKGPAQPGSADAEKPFYVNVEFHHERGLVKVNDKEVSDRISSLGSQAMQMERKKSQQSAGQGLGEAPRPHYRGRSSESSCGLDGDYEDAELNPRFLKDNLINANGGNRPPWPPLEYQPYQSIYVGGMMVEGEGKSPLLRSQSTSEQEKRLTWPRRSYSPRSFEDSGGGYTPDCSSNENLTSSEEDFSSGQSSRVSPSPTTYRMFRDKSRSPSQNSQQSFDSSSPPTPQCQKRHRQCQVVVSEATIVGVRKTGQIWPSDGDSTFQGEADSSFGTPPGYGCAADQAEEQRRHQDGLPYIDDSPSSSPHLSSKGRGSLASGALDPTKVSELDLEKGLEMRKWVLSGILASEETYLSHLEALLLPMKPLKAAATTSQPVLTSQQIETIFFKVPELYEIHKEFYDGLFPRVQQWSHQQRVGDLFQKLASQLGVYRAFVDNYGVAMETAEKCCQANAQFAEISENLRARSNKDVKDSTTKNSLETLLYKPVDRVTRSTLVLHDLLKHTPSSHPDHSLLQDALRISQNFLSSINEEITPRRQSMTVKKGEHRQLLKDSFMVELVEGARKLRHIFLFTDLLLCTKLKKQSGGKTQQYDCKWYIPLTDLSFQMVDELEALPNIPLVPDEELDALKIKISQIKSDIQREKRANKGSKVMERLRKKLSEQESLLLLMSPSMAFRVHSRNGKSYTFLISSDYERAEWRESIREQQKKCFKSFSLTSVELQMLTNSCVKLQTVHHIPLTINKEDDESPGLYGFLHVIVHSATGFKQSSNLYCTLEVDSFGYFVNKAKTRVYRDTTEPNWNEEFEIELEGSQTLRILCYEKCYNKMKMTKEDGESADKLMGKGQVQLDPQTLQDRDWQRTVIDMNGIEVKLSVKFTSREFSLKRMPSRKQTGVFGVKIAVVTKRERSKVPYIVRQCVEEIERRGMEEVGIYRVSGVATDIQALKAAFDVNNKDVSVMMSEMDVNAIAGTLKLYFRELPEPLFTDEFYPNFAEGIALSDPVAKESCMLNLLLSLPEANLLTFLFLLDHLKRVAEKETVNKMSLHNLATVFGPTLLRPSEKESKLPANPSQPITMTDSWSLEVMSQVQVLLYFLQLEAIPAPDSKRQSILFSTEV
In the case of B1, the binding [1] is reported as “binds” and the binding [2] is reported as “binds”.
